# Where a name gives a salt, the structure may show the parent alone. This is one part of the list. Repeats in this data set agree poorly, so a single value says little.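 Wild-type human LRH-1, a heavily sumoylated nuclear receptor, is tetracycline-inducible in stable JEG3 cells. RT-qPCR measured SUMO-sensitive APOC3 and MUC1 transcripts, which rise with SUMO-less LRH-1 or UBC9 knockdown, versus TBP and DMSO controls. Robust Z-scores beyond ±2 flagged primary hits, followed by toxicity and TBP filtering.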
# Test system: JEG3 expressing hLRH-1
# Test: MUC1 transcript change (ddCt vs TBP and DMSO), Z-score over library; higher = higher MUC1 expression
# Conditions: 10 µM; time (hr): 24
row,Compound,MUC1 transcript change (Z-score)
1,CCN(CC)CC(=O)Nc1c(C)cccc1C [Lidocaine hydrochloride],-1.62
2,CC(=O)OCC(=O)[C@@]12OC(C)(C)O[C@@H]1C[C@H]1[C@@H]3C[C@H](F)C4=CC(=O)C=C[C@]4(C)[C@@]3(F)[C@@H](O)C[C@@]12C [fluocinonide],-0.183
3,Clc1ccc2c(c1)C(N1CCNCC1)=Nc1ccccc1O2 [Amoxapine],-1.01
4,CC(C)NCC(O)c1ccc(NS(C)(=O)=O)cc1 (configuration not stated) [sotalol hydrochloride],-0.12
5,COc1ccc(-c2cc(C(F)F)nn2-c2ccc(S(N)(=O)=O)cc2)cc1F [deracoxib],-1.46
6,O=C1NS(=O)(=O)c2ccccc21 [saccharin],0.0744
7,Nc1ccc(S(=O)(=O)c2ccc(N)cc2)cc1 [dapsone],-0.464
8,CN(C)CCC(c1ccc(Cl)cc1)c1ccccn1 (configuration not stated) [chlorpheniramine maleate],-0.367
9,CN1CCN(C(c2ccccc2)c2ccc(Cl)cc2)CC1 (configuration not stated) [chlorcyclizine hydrochloride],-0.445
10,O=S(=O)(OC[C@H]1O[C@@H](O[C@]2(COS(=O)(=O)[O][Al]([OH])[OH])O[C@H](OS(=O)(=O)[O][Al]([OH])[OH])[C@@H](OS(=O)(=O)[O][Al]([OH])[OH])[C@@H]2OS(=O)(=O)[O][Al]([OH])[OH])[C@H](OS(=O)(=O)[O][Al]([OH])[OH])[C@@H](OS(=O)(=O)[O][Al]([OH])[OH])[C@@H]1OS(=O)(=O)[O][Al]([OH])[OH])[O][Al]([OH])[OH] [sucralfate],1.12
11,CN(C)CCN(Cc1cccs1)c1ccccn1 [methapyrilene hydrochloride],0.708
12,CC(=O)NS(=O)(=O)c1ccc(N)cc1 [sulfacetamide],0.0294
13,CCC[C@H](N[C@@H](C)C(=O)N1[C@H](C(=O)O)C[C@@H]2CCCC[C@@H]21)C(=O)OCC [perindopril erbumine],-1.33
14,Cc1nccnc1N1CCCCC1 [modaline sulfate],0.685
15,CCC1(C)OC(=O)N(C)C1=O (configuration not stated) [paramethadione],0.53
16,COC(=O)Nc1nc2cc(S(=O)c3ccccc3)ccc2[nH]1 (configuration not stated) [oxfendazole],0.604
17,NC(=O)CCCCC1CCSS1 (configuration not stated) [lipoamide],-0.084
18,CN1CCOC(c2ccccc2)c2ccccc2C1 (configuration not stated) [nefopam],-0.084
19,O=C(O)c1cccnc1 [niacin],-0.167
20,CCC(C)(C)C(=O)O[C@H]1C[C@@H](C)C=C2C=C[C@H](C)[C@H](CC[C@@H]3C[C@@H](O)CC(=O)O3)[C@H]21 [simvastatin],0.751
21,Nc1ncnc2c1ncn2[C@@H]1O[C@H](CO)[C@@H](O)[C@H]1O [adenosine],0.276
22,CC#CCn1c(N2CCC[C@@H](N)C2)nc2c1c(=O)n(Cc1nc(C)c3ccccc3n1)c(=O)n2C [linagliptin],-0.437
23,c1ccc2c(CC3=NCCN3)cccc2c1 [naphazoline hydrochloride],-0.163
24,CN[C@@H]1[C@H](O)[C@H](NC)[C@H]2O[C@@]3(O)C(=O)C[C@@H](C)O[C@H]3O[C@@H]2[C@H]1O [spectinomycin hydrochloride],0.689

row,Compound,MUC1 transcript change (Z-score)
1,CC(=O)NCCCS(=O)(=O)[O-]->[Ca+2]<-[O-]S(=O)(=O)CCCNC(C)=O [acamprosate calcium],0.277
2,COC(=O)/C=C/C(=O)OC [dimethyl fumarate],-0.0709
3,OC(CNCC(O)C1CCc2cc(F)ccc2O1)C1CCc2cc(F)ccc2O1 (configuration not stated) [nebivolol hydrochloride],0.5
4,O=C(NCc1ccccc1)OCCO [buramate],0.672
5,N=C(N)/N=C(\N)NCCc1ccccc1 [phenformin hydrochloride],-0.622
6,CN(C)CCCN1c2ccccc2Sc2ccc(C(F)(F)F)cc21 [triflupromazine hydrochloride],-0.426
7,S=P(N1CC1)(N1CC1)N1CC1 [thiotepa],-0.0352
8,N[C@@H](Cc1cc(I)c(Oc2ccc(O)c(I)c2)c(I)c1)C(=O)O [liothyronine sodium],0.291
9,CCN(CC)C(=O)C1(c2ccccc2)CC1CN (configuration not stated) [milnacipran hydrochloride],-0.618
10,Cc1cc(C(C)(C)CC(C)(C)C)cc(Cc2cc(C(C)(C)CC(C)(C)C)cc(Cc3cc(C(C)(C)CC(C)(C)C)ccc3OCCO)c2OCCO)c1OCCO [tyloxapol],-0.283
11,CC(=O)Oc1ccc(C(c2ccc(OC(C)=O)cc2)c2ccccn2)cc1 [bisacodyl],0.853
12,CCC(C)C(N)C1=NC(C(=O)NC(CC(C)C)C(=O)NC(CCC(=O)O)C(=O)NC(C(=O)NCCCCC2NC(=O)C(CC(N)=O)NC(=O)C(CC(=O)O)NC(=O)C(Cc3c[nH]cn3)NC(=O)C(Cc3ccccc3)NC(=O)C(C(C)CC)NC(=O)C(CCCN)NC2=O)C(C)CC)CS1 (configuration not stated) [bacitracin],0.0679
13,CC(C)NCC(O)COc1ccc(CC(N)=O)cc1 (racemic) [(±)-Atenolol],0.0687
14,CCN(CC)CCNC(C(=O)OCCC(C)C)c1ccccc1 (configuration not stated) [camylofine dihydrochloride],-0.628
15,C[N+]1(C)C2CC[C@H]1C[C@@H](OC(=O)C(O)c1ccccc1)C2 (some centres not stated) [homatropine methylbromide],-1
16,O=C(/C=C/C=C/c1ccc2c(c1)OCO2)N1CCCCC1 [piperine],0.459
17,OC(CCN1CCCC1)(c1ccccc1)C1CCCCC1 (configuration not stated) [procyclidine hydrochloride],-0.582
18,Nc1nc(O)c2c(CCc3ccc(C(=O)N[C@@H](CCC(=O)O)C(=O)O)cc3)c[nH]c2n1 [pemetrexed],0.923
19,CC1(C)NC(=O)N(c2ccc([N+](=O)[O-])c(C(F)(F)F)c2)C1=O [nilutamide],-0.173
20,C[N+](C)(C)CC(=O)O [betaine hydrochloride],0.7
21,O=C1C(CCS(=O)c2ccccc2)C(=O)N(c2ccccc2)N1c1ccccc1 (configuration not stated) [sulfinpyrazone],1.15
22,CS(=O)(=O)c1ccc(C2=C(c3ccccc3)C(=O)OC2)cc1 [rofecoxib],0.781
23,C[C@]12CC[C@@H]3c4ccc(OC(=O)c5ccccc5)cc4CC[C@H]3[C@@H]1CC[C@@H]2O [estradiol benzoate],-0.498
24,CC(=O)OC(C)C[N+](C)(C)C (configuration not stated) [methacholine chloride],0.586

row,Compound,MUC1 transcript change (Z-score)
1,Fc1ccc(C(c2ccc(F)cc2)N2CCN(C/C=C/c3ccccc3)CC2)cc1 [Flunarizine dihydrochloride],0.85
2,C[C@H](N)[C@H](O)c1cccc(O)c1 [metaraminol bitartrate],-0.831
3,CC(=O)OCC(=O)[C@@]1(O)CCC2C3CCC4=CC(=O)C=CC4(C)C3[C@@H](O)C[C@@]21C (some centres not stated) [prednisolone acetate],-0.759
4,COc1ccc(OC)c(C(O)CNC(=O)CN)c1 (configuration not stated) [midodrine hydrochloride],0.557
5,CC1(C)S[C@@H]2[C@H](NC(=O)C(C(=O)O)c3ccccc3)C(=O)N2[C@H]1C(=O)O (some centres not stated) [carbenicillin disodium],1.13
6,OCCN1CCN(CCCN2c3ccccc3Sc3ccc(Cl)cc32)CC1 [perphenazine],1.14
7,N=C(N)N [guanidine carbonate],0.65
8,Cc1ccccc1OCC(O)CO (configuration not stated) [mephenesin],-0.522
9,COc1ccc(C[C@H](N)C(=O)N[C@@H]2[C@@H](CO)OC(n3cnc4c(N(C)C)ncnc43)[C@@H]2O)cc1 (some centres not stated) [puromycin hydrochloride],-1.42
10,CN[C@@H]1[C@@H](O)[C@@H](O[C@@H]2[C@@H](O)[C@H](O[C@H]3OC(CN)=CC[C@H]3N)[C@@H](N)C[C@H]2N)OC[C@]1(C)O [sisomicin sulfate],0.664
11,CCC(=O)Oc1ccc2c(c1)CC[C@@H]1[C@@H]2CC[C@]2(C)[C@@H](OC(=O)CC)CC[C@@H]12 [estradiol dipropionate],-0.214
12,CC(C)OC(=O)CCC/C=C\C[C@@H]1[C@@H](/C=C/[C@@H](O)COc2cccc(C(F)(F)F)c2)[C@H](O)C[C@@H]1O [travoprost],-0.566
13,CN(C)CCC=C1c2ccccc2CCc2ccccc21 [Amitriptyline hydrochloride],-0.809
14,CN(C)C(=O)C(CCN1CCC(O)(c2ccc(Cl)cc2)CC1)(c1ccccc1)c1ccccc1 [Loperamide hydrochloride],-0.252
15,CCCCNc1cc(C(=O)O)cc(S(N)(=O)=O)c1Oc1ccccc1 [bumetanide],0.0101
16,CC1(C)O[C@@H]2C[C@H]3[C@@H]4CCC5=CC(=O)C=C[C@]5(C)[C@H]4[C@@H](O)C[C@]3(C)[C@]2(C(=O)CO)O1 [desonide],-1.65
17,CNC(C)[C@@H]1CC[C@@H](N)[C@@H](OC2[C@@H](N)C[C@@H](N)[C@H](OC3OC[C@](C)(O)[C@H](NC)[C@H]3O)[C@H]2O)O1 (some centres not stated) [gentamicin sulfate],-0.567
18,C[C@]12CCC3c4ccc(O)cc4CCC3C1CCC2=O (some centres not stated) [estrone],0.0957
19,COC(=O)Nc1nc2cc(C(=O)c3ccccc3)ccc2[nH]1 [mebendazole],-1.94
20,CCN(CC)C(=S)SSC(=S)N(CC)CC [disulfiram],-0.38
21,Cc1cccc(CN2CCN(C(c3ccccc3)c3ccc(Cl)cc3)CC2)c1 (configuration not stated) [meclizine hydrochloride],1.25
22,Nc1c(Br)cc(Br)cc1CNC1CCC(O)CC1 (configuration not stated) [ambroxol hydrochloride],0.707
23,CN(C)[C@@H]1C(=O)C(C(N)=O)=C(O)[C@@]2(O)C(=O)C3=C(O)c4c(O)ccc(Cl)c4[C@@H](O)[C@H]3C[C@@H]12 [demeclocycline hydrochloride],-0.105
24,C[C@H]1COc2c(N3CCN(C)CC3)c(F)cc3c(=O)c(C(=O)O)cn1c23 [levofloxacin],0.384

# Pulled by compound from above (4):
row,Compound,MUC1 transcript change (Z-score)
15,CCCCNc1cc(C(=O)O)cc(S(N)(=O)=O)c1Oc1ccccc1 [bumetanide],0.0101
8,Cc1ccccc1OCC(O)CO (configuration not stated) [mephenesin],-0.522
12,CC(C)OC(=O)CCC/C=C\C[C@@H]1[C@@H](/C=C/[C@@H](O)COc2cccc(C(F)(F)F)c2)[C@H](O)C[C@@H]1O [travoprost],-0.566
13,CN(C)CCC=C1c2ccccc2CCc2ccccc21 [Amitriptyline hydrochloride],-0.809
